Assay results taken from BigSolDB 2.1.

`Nc1ccc(S(N)(=O)=O)cc1` gave a solubility (mole fraction) (in 1,4-dioxane, 293.15 K) of 0.0789, a solubility (mole fraction) (in 1,4-dioxane, 303.15 K) of 0.101 and a solubility (mole fraction) (in 1,4-dioxane, 308.15 K) of 0.105. It also gave a solubility (mole fraction) (in 1,4-dioxane, 313.15 K) of 0.115, a solubility (mole fraction) (in 1,4-dioxane, 323.15 K) of 0.143 and a solubility (mole fraction) (in DMF, 293.15 K) of 0.0187. It also gave a solubility (mole fraction) (in DMF, 303.15 K) of 0.0253, a solubility (mole fraction) (in DMF, 308.15 K) of 0.0322 and a solubility (mole fraction) (in DMF, 313.15 K) of 0.0427. It also gave a solubility (mole fraction) (in DMF, 323.15 K) of 0.0617, a solubility (mole fraction) (in DMSO, 293.15 K) of 0.0127 and a solubility (mole fraction) (in DMSO, 303.15 K) of 0.0172. It also gave a solubility (mole fraction) (in DMSO, 308.15 K) of 0.0207, a solubility (mole fraction) (in DMSO, 313.15 K) of 0.0246 and a solubility (mole fraction) (in DMSO, 323.15 K) of 0.033. For the same compound, the solubility (mole fraction) (in acetonitrile, 293.15 K) was 0.00367, the solubility (mole fraction) (in acetonitrile, 303.15 K) was 0.00512 and the solubility (mole fraction) (in acetonitrile, 308.15 K) was 0.00757. It also gave a solubility (mole fraction) (in acetonitrile, 313.15 K) of 0.0113, a solubility (mole fraction) (in acetonitrile, 323.15 K) of 0.0169 and a solubility (mole fraction) (in ethylene glycol, 293.15 K) of 0.000661. It also gave a solubility (mole fraction) (in ethylene glycol, 303.15 K) of 0.00077, a solubility (mole fraction) (in ethylene glycol, 308.15 K) of 0.000843 and a solubility (mole fraction) (in ethylene glycol, 313.15 K) of 0.000951. It also gave a solubility (mole fraction) (in ethylene glycol, 323.15 K) of 0.00116, a solubility (mole fraction) (in n-butyl acetate, 293.15 K) of 0.0011 and a solubility (mole fraction) (in n-butyl acetate, 303.15 K) of 0.00119. It also gave a solubility (mole fraction) (in n-butyl acetate, 308.15 K) of 0.00125, a solubility (mole fraction) (in n-butyl acetate, 313.15 K) of 0.00138 and a solubility (mole fraction) (in n-butyl acetate, 323.15 K) of 0.00153. The solubility (mole fraction) (in n-hexane, 293.15 K) was 0.000132, the solubility (mole fraction) (in n-hexane, 303.15 K) was 0.000144 and the solubility (mole fraction) (in n-hexane, 308.15 K) was 0.000151. The solubility (mole fraction) (in n-hexane, 313.15 K) was 0.000155, the solubility (mole fraction) (in n-hexane, 323.15 K) was 0.000164 and the solubility (mole fraction) (in n-pentanol, 293.15 K) was 0.000634. It also gave a solubility (mole fraction) (in n-pentanol, 303.15 K) of 0.000795, a solubility (mole fraction) (in n-pentanol, 308.15 K) of 0.000955 and a solubility (mole fraction) (in n-pentanol, 313.15 K) of 0.00125. For the same compound, the solubility (mole fraction) (in n-pentanol, 323.15 K) was 0.00187.
